# Data: article PMC7819943, “Rice protein-binding microarrays: a tool to detect cis-acting elements near promoter regions in rice”
# The list shows a part of the results.
# Target: T1, OsSMF1 (Oryza sativa, UniProt Q6ZLB0 1-436)
# T1 sequence: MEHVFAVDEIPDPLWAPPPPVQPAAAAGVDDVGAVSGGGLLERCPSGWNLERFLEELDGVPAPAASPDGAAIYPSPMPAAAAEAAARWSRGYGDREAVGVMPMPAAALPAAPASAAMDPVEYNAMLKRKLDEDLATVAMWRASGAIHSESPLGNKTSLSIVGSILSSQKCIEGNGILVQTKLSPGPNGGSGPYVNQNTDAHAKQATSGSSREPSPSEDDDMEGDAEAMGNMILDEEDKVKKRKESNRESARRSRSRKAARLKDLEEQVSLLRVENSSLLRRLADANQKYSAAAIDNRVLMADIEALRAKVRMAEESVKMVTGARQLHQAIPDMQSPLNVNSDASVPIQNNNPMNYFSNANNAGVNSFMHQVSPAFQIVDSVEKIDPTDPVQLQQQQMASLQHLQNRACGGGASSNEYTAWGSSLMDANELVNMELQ
# Assay: protein-binding microarray (RPBM); PBS, 2% BSA, 51.3 ng/ul salmon testes DNA, 50 uM zinc acetate, 200 nM TF, 25 C, 1 h; high values mean tight binding
# Details: protein: recombinant; tags: N-terminal polyhistidine and DsRed monomer fusion (pET32a); chain copies: 2; label: CyDye5-dUTP incorporated in the synthesized complementary strand; 3' TTTTT single-stranded linker to array surface; dsDNA, one strand shown
# Procedure, shortened: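 The binding signal is fluorescence intensity per array feature (arbitrary units). Readings came from an Axon 4000B scanner after a washed, 2% BSA-blocked, double-stranded custom Agilent array had been incubated for 1 h at 25 °C with 200 nM protein and 50 µM zinc acetate. The protein was a Ni–NTA-purified transcription factor fused N-terminally to polyhistidine and DsRed, expressed in E. coli BL21-CodonPlus.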
row,Sequence,binding signal
1,CTCGTGGGGACGACGCTGGTGTCCGTGTACTGCAAGTGCGCGGAGTCACCTAGTGCAG,4060 fluorescence intensity (a.u.)
2,TATCGAATTTTATAATTTTGTATCAATTCCAATACCACCACGGAGTCACCTAGTGCAG,3170 fluorescence intensity (a.u.)
3,GCCTTCTGCTATTGCTGATGCGGCAGCGGATGTACCGCGGCGGAGTCACCTAGTGCAG,4820 fluorescence intensity (a.u.)
4,GCCGGCGCCGGCGCCGCCGTGGCGTCACCCGCACCTATTACGGAGTCACCTAGTGCAG,4500 fluorescence intensity (a.u.)
5,GATTAAATTTTGATATGAGCGGTTCTAATCCATGAGACAACGGAGTCACCTAGTGCAG,21600 fluorescence intensity (a.u.)
6,GTAGCAGGAGGGTTGCGTAATACGTTACCAGCACGACGTTCGGAGTCACCTAGTGCAG,3570 fluorescence intensity (a.u.)
7,GATACATTATAGTATAATGAATCTGGACACGTAGATTTATCGGAGTCACCTAGTGCAG,3890 fluorescence intensity (a.u.)
8,CGTGCCGCTGGCTCTTGACACGCTATGCTGATCTGGCAGGCGGAGTCACCTAGTGCAG,14400 fluorescence intensity (a.u.)
9,AACATGGAGTTTTCCTTTTCTTGGTTATGTCATGACATAACGGAGTCACCTAGTGCAG,3530 fluorescence intensity (a.u.)
10,CCAGCGCGCGTTCACACATAGAGATGGATAGGGAGAGGGCCGGAGTCACCTAGTGCAG,26700 fluorescence intensity (a.u.)
11,CAACTAAAACGTGTACTAGCATCTAGCAGTACGAACCAGCCGGAGTCACCTAGTGCAG,3720 fluorescence intensity (a.u.)
12,TACATATCCAAGTGTAGAGGCGCCGTCAGAGAACTTATTACGGAGTCACCTAGTGCAG,38900 fluorescence intensity (a.u.)
13,AATCCTACTAGTAAAATGCAATTCATGCTGGCAGTTGGGCCGGAGTCACCTAGTGCAG,22000 fluorescence intensity (a.u.)
14,ATTCCGAGGCTTCCATTCTCTCTGTCAGACTTTGTCACCGCGGAGTCACCTAGTGCAG,4050 fluorescence intensity (a.u.)
15,ATGGGAAAGTAAATCAATTAACATATATACTCGTTTAAAACGGAGTCACCTAGTGCAG,16500 fluorescence intensity (a.u.)
16,TCTCCCACGTCATCGTCGTCGTCGCCGCTGCCCTCCTCCTCGGAGTCACCTAGTGCAG,25200 fluorescence intensity (a.u.)
17,AGTAGGGAAAGTTACAACGCAGCCTAACGTGGGATAGCGGCGGAGTCACCTAGTGCAG,3980 fluorescence intensity (a.u.)
18,AGAGAGTAGTACTGTACGGTGACTAGGGTTGACTAGTCCCCGGAGTCACCTAGTGCAG,3930 fluorescence intensity (a.u.)
19,CATGATGTGGAGAAGTTGACCAATGATCTTGCTGGCCTAGCGGAGTCACCTAGTGCAG,22400 fluorescence intensity (a.u.)
20,GGGGATTACATCTGCCTAAGCAGCCGCGTGTCGATTTCGGCGGAGTCACCTAGTGCAG,3740 fluorescence intensity (a.u.)
21,TGCCGCTAATCAGTGACGCAGAGTCACAAATGAACACCATCGGAGTCACCTAGTGCAG,3970 fluorescence intensity (a.u.)

# Part of the list above in a different format:
row | Sequence | binding signal
8 | CGTGCCGCTGGCTCTTGACACGCTATGCTGATCTGGCAGGCGGAGTCACCTAGTGCAG | 14400 fluorescence intensity (a.u.)
9 | AACATGGAGTTTTCCTTTTCTTGGTTATGTCATGACATAACGGAGTCACCTAGTGCAG | 3530 fluorescence intensity (a.u.)

# (next part)

row,Sequence,binding signal
1,ACTTGTATCCGTCATGCCTGCATTCTAGTCACCATGTAGCCGGAGTCACCTAGTGCAG,4240 fluorescence intensity (a.u.)
2,GTCACCTTGGTACGTGTTCAATATGTTGCGCATATTTGATCGGAGTCACCTAGTGCAG,4370 fluorescence intensity (a.u.)
3,AGTAGCACAATCTTCGTGTTGATTCATTCCTCCTGTGGTCCGGAGTCACCTAGTGCAG,3260 fluorescence intensity (a.u.)
4,TAGACTTTAGCTGCCACTACACCTATGTTACGTATAGATGCGGAGTCACCTAGTGCAG,29300 fluorescence intensity (a.u.)
5,AGTTTTACAATAAATTTACTGTTATAAATATACATTTAACCGGAGTCACCTAGTGCAG,10400 fluorescence intensity (a.u.)
6,CTGAATTTAGACACCTCAGCGCCACGTCAACTGGCGCTGACGGAGTCACCTAGTGCAG,18400 fluorescence intensity (a.u.)
7,TCATCTGATGTCACACTCCCAATGAGTGAAGAATAATACTCGGAGTCACCTAGTGCAG,3450 fluorescence intensity (a.u.)
8,ATGCGGATCTGAGTGGTGGTGGTGGTGGACTGGTGGTTGCCGGAGTCACCTAGTGCAG,3760 fluorescence intensity (a.u.)
9,ACCGGGCGGTAGTGTTAGGATGGTGTTTTCAACTGAAGCACGGAGTCACCTAGTGCAG,22600 fluorescence intensity (a.u.)
10,AATCGGTGTCGTTTTGCACGGCGTGTGCCACGTCAGCGTTCGGAGTCACCTAGTGCAG,52000 fluorescence intensity (a.u.)
11,GAACGGCCGTCTGCCACGTCATTTTCGCCGCCCTCTGGGACGGAGTCACCTAGTGCAG,27000 fluorescence intensity (a.u.)
12,TATGTCAATACTGTATGCATATATTAACATAAAATATCTCCGGAGTCACCTAGTGCAG,4760 fluorescence intensity (a.u.)
13,ATTACTAATTTATGTGGTAATCGACCGCGTGCAAGAATTACGGAGTCACCTAGTGCAG,3150 fluorescence intensity (a.u.)
14,AACGAGACAATAATATGTCAGACATATCCATCTAGCTGCGCGGAGTCACCTAGTGCAG,4300 fluorescence intensity (a.u.)
15,TGGCTAACCTCACTGCCACGCGTGCCCCACCCCAGTGGGACGGAGTCACCTAGTGCAG,6810 fluorescence intensity (a.u.)
16,AAATCTGTGTCGATAGATGCCACATCTGCCGACCCTGCAACGGAGTCACCTAGTGCAG,6130 fluorescence intensity (a.u.)
17,ATCCTCAACTCAATCCCGACGAAATCCCCTTCGATTTGAGCGGAGTCACCTAGTGCAG,3290 fluorescence intensity (a.u.)
18,CGGGCTGGGCGAGCGCTGGGCGATGCCACGTCGGATAGGACGGAGTCACCTAGTGCAG,14700 fluorescence intensity (a.u.)
19,GCTGTCGTCGTCGTTGCTGCCGTCGTCGTCACCGTCGTCGCGGAGTCACCTAGTGCAG,4340 fluorescence intensity (a.u.)
20,CGATCTCCCCTTTTGCCCTCCAACTTGACGCGTCAATGGACGGAGTCACCTAGTGCAG,4030 fluorescence intensity (a.u.)
